Values quoted from earlier work, collected in patent US20100144652A1, “COMPOSITION COMPRISING A GLYCOLYTIC INHIBITOR AND A RING SYSTEM COMPRISING A SULPHAMATE GROUP FOR THE TREATMENT OF CANCER” (Sterix Limited, priority 2007, published 2010).
At least one compound was matched to its structure with a doubt left.

System: r^□ cells which have lost their mitochondrial DNA
Conditions: Liu et al., 2001; cited from earlier work

For `NC(=O)C(=O)O` [oxamate], which “sensitivity of cells lacking mitochondrial DNA relative to wt cells” value is on record?
Its value is 4.9 times.
